Assay results as given in patent US10399931B2, “Octahydroanthracene compound, preparation method and application thereof” (SHANDONG XINHUA PHARMACEUTICAL CO., LTD., priority 2016, dated 2019).

How the values were obtained:
[1] = tested on: Human cutaneous T-cell lymphoma Hut102 cells; assay: MTT assay, proliferation of human cutaneous T-cell lymphoma Hut102 cells; type: cell-based; settings: 10 μM, Mean ± SE
Protocol: (§1) The survival rate of cells was determined by MTT assay, which is based on the metabolic reduction of 3-(4,5-dimethyl-2thiahiazoyl)-3,5-di-phenyl-tetrazolium bromide (MTT) by viable cells. MTT is a yellow compound, a dye that accepts hydrogen ion, which can act on the respiratory chain in the mitochondria of viable cells. Under the action of succinate dehydrogenase and cytochrome C, the tetrazolium ring was cleaved to form blue Formazan crystals, and the amount of Formazan crystals generated was only proportional to the number of the viable cells. The enzymes disappeared in dead cells, so Formazan crystals could not be dissolved in MTT solution containing 20% sodium dodecyl sulfate (pH 4.7).
(§2) The cells in the logarithmic growth phase were selected and adjusted to an appropriate cell density, seeded in a 96-well plate, 100 μl/well, and cultured in a 37° C., 5% CO2 incubator. The cells were allowed to adhere overnight, then the culture medium was replaced and the drug was added to cultivate for 48 h. A blank control group, a drug administration group and a positive control group were set, with four repeats in each group.
(§3) After 48 h of drug treatment, the cells were incubated with 0.25 mg/ml MTT at 37° C. for 3-4 h, and 100 μl of dimethyl sulfoxide (DMSO) was added to each well after aspirating the culture solution.

[2] = tested on: Human leukemia HL60 cells; assay: MTT assay, proliferation of human leukemia HL60 cells; type: cell-based; settings: for Inhibitive rate (%) against HL60 cells: Mean ± SE
Protocol: as §1, §2, §3

## O=C(CCCCCCC(=O)Nc1ccccc1)NO [SAHA, reference compound]
[1]
  Inhibitive rate (%) against Hut102 cells: 61.60 ± 0.46 %
[2]; 0.01 μmol/L
  Inhibitive rate (%) against HL60 cells: 23.23 ± 1.48 %
[2]; 0.1 μmol/L
  Inhibitive rate (%) against HL60 cells: 74.97 ± 1.95 %
[2]; 1 μmol/L
  Inhibitive rate (%) against HL60 cells: 74.48 ± 0.44 %
[2]; 10 μM, 48 h
  Inhibitive rate (%) against HL60 cells: 66.86 ± 0.21 %
[2]; 10 μmol/L (rescreening)
  Inhibitive rate (%) against HL60 cells: 75.46 ± 1.27 %
[2]; MTT, 48 h, read-out: IC50 against HL60 cells
  IC50: 690 ± 160 nM
